Laboratory results published in paper doi:10.1101/2024.01.10.574969.
Results are given in words; binding and its absence hold for the method and conditions named. In cells and extracts the contact can be indirect. A result given as binding can be weak or reduced; the word gives no strength.

By UniProt entry, the sequences of proteins in these tests, tags left out. Where a name states a change or a piece, a line headed by the entry shows the natural chain unless it says otherwise.
UniProt Q9ULT6: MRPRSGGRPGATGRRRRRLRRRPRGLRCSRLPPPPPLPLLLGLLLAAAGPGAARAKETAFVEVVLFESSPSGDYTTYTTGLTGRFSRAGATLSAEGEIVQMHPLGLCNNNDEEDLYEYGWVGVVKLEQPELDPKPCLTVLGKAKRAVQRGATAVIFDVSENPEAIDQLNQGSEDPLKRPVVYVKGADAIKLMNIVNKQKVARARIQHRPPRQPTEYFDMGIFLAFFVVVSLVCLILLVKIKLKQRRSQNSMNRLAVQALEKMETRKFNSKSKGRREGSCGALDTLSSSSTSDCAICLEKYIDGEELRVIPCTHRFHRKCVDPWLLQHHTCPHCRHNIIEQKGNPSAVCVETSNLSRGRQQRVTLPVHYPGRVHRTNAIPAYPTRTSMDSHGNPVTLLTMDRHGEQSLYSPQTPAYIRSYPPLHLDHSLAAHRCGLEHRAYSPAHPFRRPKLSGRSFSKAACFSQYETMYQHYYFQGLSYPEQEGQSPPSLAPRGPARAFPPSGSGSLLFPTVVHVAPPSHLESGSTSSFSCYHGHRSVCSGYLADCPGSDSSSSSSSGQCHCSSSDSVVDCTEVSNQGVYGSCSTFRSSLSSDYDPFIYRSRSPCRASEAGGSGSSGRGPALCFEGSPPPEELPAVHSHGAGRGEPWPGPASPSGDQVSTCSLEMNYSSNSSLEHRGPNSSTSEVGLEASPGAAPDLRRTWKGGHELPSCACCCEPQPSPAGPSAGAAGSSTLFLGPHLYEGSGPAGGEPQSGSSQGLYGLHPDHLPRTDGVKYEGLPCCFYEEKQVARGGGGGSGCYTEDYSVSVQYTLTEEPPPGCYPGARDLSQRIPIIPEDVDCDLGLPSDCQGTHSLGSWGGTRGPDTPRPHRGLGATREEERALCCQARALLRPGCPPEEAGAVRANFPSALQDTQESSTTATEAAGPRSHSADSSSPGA

Biological target: EGFR (transfected HCT116 cells) (UniProt P00533)
Assay: proximity ligation; HCT116 cells co-transfected with Myc-ZNRF3ΔR and EGFR; Duolink In Situ Red; anti-EGFR (D38B1) rabbit and anti-Myc-tag (9B11) mouse antibodies; no primary antibody as negative control

- binding: binds
Substance: Myc-ZNRF3ΔRING (from UniProt Q9ULT6) (enzyme)
